# Data as given in PubChem BioAssay AID1053208 (Peter MacCallum Cancer Centre, 2014).
# Test: 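Synthetic lethal interactions between gene loss and doxorubicin in osteosarcoma cells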 (primary screen)
# Cells: mouse osteosarcoma cells, early-passage culture from an engineered mouse model of fibroblastic bone tumour
# Reagent: siRNA pool against mouse genes, 40 nM
# Timing: about 120 h (48 h before drug, then 72 h with drug)
# Challenge: doxorubicin 100 nM for 72 h, roughly 30-40% inhibitory dose
# Read-out: 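Viability read as ATP luminescence after 72 h of 100 nM doxorubicin or none, duplicate wells averaged, scaled to non-targeting siRNA, then expressed as robust z-scores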
# Reading the numbers: viability z-score with doxorubicin: higher = more viable cells under doxorubicin; viability z-score without drug: higher = more viable cells with knock-down alone
# Rule for the call: 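a pool counts as active when its viability z-score with doxorubicin is -2 or below and its z-score without drug lies between -2 and 2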
# Here is a random part of about 17,000 deposited reagents. Over the whole deposit, 788 (4.7%) are marked active. 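Calls rest on z-score classes alone; an extra cut-off of viability at most 70% of control was not applied to them.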 Not all columns of the deposit are shown. Reagent sequences are not shown.
target gene,PubChem SID,combined z-score class,viability z-score with doxorubicin,viability z-score without drug,activity call
Nxt1,SID152329614,no change with or without drug,0.45,-0.17,inactive
Fbxo25,SID152283124,no change with or without drug,1.69,1.85,inactive
Psmc2,SID152340300,low cell count with and without drug,-4.95,-3.71,inactive
Or2q1,SID152320051,no change with or without drug,-1.91,-1.18,inactive
Extl1,SID152294021,no change with or without drug,0.45,0.51,inactive
Plekha1,SID152317382,no change with or without drug,0.11,1.18,inactive
Gpr3,SID152340940,low cell count without drug only,-1.35,-2.02,inactive
Pnrc1,SID152261583,no change with or without drug,1.35,0.84,inactive
Sec24a,SID152273035,no change with or without drug,-0.34,0.17,inactive
Lrrc45,SID152326705,no change with or without drug,0.79,0.51,inactive
Pla2g3,SID152317505,no change with or without drug,0.45,1.35,inactive
Man2c1,SID152296350,no change with or without drug,0.45,-0.17,inactive
Casq2,SID152299622,high cell count with doxorubicin only,2.25,1.35,inactive
Fam110a,SID152290642,no change with or without drug,0.11,-0.17,inactive
Styx,SID152334676,no change with or without drug,0,-0.34,inactive
Tob2,SID152290118,no change with or without drug,-0.56,0.17,inactive
Hba-a1,SID152278385,no change with or without drug,-0.45,-0.51,inactive
Lhx9,SID152262749,no change with or without drug,-0.45,0.51,inactive
Arl5c,SID152323235,no change with or without drug,0.9,0.17,inactive
Mtdh,SID152282018,no change with or without drug,-1.01,-0.17,inactive
Tmed4,SID152272470,low cell count with doxorubicin only,-2.02,-0.84,active
Ccdc34,SID152322458,no change with or without drug,0,-1.18,inactive

Only “viability z-score with doxorubicin” (3 entries from above):
Styx [SID152334676] = 0
Tob2 [SID152290118] = -0.56
Hba-a1 [SID152278385] = -0.45

The listing continues.
target gene,PubChem SID,combined z-score class,viability z-score with doxorubicin,viability z-score without drug,activity call
Heatr1,SID152317658,no change with or without drug,0.45,-1.18,inactive
Ttc24,SID152297600,no change with or without drug,0.45,0.67,inactive
Six3,SID152315000,no change with or without drug,0.22,-0.17,inactive
Dipk2b,SID152336474,no change with or without drug,-0.9,-1.85,inactive
Gpr55,SID152293117,no change with or without drug,-0.45,-0.51,inactive
Cyp3a11,SID152274821,no change with or without drug,1.57,0.67,inactive
Vmn1r178,SID152265429,low cell count with doxorubicin only,-2.25,-0.67,active
Prkd2,SID152300276,no change with or without drug,0.22,-0.51,inactive
Ppp1r7,SID152304278,no change with or without drug,-0.56,0.17,inactive
Hnf1a,SID152297662,no change with or without drug,0.22,0.51,inactive
Or5w10,SID152315955,no change with or without drug,1.35,0.17,inactive
Aox1,SID152281133,no change with or without drug,0.22,-0.67,inactive
